Source: the M2OR odorant receptor database
Only a part is listed here, and it is no random draw. The calls were merged from several studies; some rest on single wells. This is one part of the list.

What was measured:
Conditions in all cases: stereoisomer not certain
[1] = target: T1, OR10K1 (Homo sapiens) (UniProt Q8NGX5)
T1 sequence (whole entry): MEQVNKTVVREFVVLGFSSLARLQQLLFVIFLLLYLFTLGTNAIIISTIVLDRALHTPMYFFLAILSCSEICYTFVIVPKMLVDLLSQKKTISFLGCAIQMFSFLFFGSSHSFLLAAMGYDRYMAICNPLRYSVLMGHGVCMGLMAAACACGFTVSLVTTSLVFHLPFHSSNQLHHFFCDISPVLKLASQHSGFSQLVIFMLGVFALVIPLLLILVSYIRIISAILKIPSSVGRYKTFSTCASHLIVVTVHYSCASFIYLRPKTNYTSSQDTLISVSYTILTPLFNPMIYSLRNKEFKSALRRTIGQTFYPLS
Procedure, shortened: (§1)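 Each receptor–molecule pair is labelled responsive or non-responsive (inactive) according to whether the original authors judged the measured signal statistically different from baseline. The data were taken from the main text and supplementary material of published papers and checked for typos and inconsistencies. Assay methods differed by source, with transient luciferase assays in mammalian cell lines being common.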

[2] = target: T2, OR10K2 (Homo sapiens) (UniProt Q6IF99)
T2 sequence (whole entry): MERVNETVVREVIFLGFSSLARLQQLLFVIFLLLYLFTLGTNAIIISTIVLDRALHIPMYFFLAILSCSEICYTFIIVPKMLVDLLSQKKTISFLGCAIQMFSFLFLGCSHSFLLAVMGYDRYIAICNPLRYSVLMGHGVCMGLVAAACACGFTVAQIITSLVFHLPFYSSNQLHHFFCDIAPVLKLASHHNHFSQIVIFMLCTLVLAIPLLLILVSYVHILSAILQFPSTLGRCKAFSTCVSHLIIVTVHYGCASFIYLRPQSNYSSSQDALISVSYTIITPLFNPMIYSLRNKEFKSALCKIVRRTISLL
Procedure, shortened: as §1

[3] = target: T3, OR10T2 (Homo sapiens) (UniProt Q8NGX3)
T3 sequence (whole entry): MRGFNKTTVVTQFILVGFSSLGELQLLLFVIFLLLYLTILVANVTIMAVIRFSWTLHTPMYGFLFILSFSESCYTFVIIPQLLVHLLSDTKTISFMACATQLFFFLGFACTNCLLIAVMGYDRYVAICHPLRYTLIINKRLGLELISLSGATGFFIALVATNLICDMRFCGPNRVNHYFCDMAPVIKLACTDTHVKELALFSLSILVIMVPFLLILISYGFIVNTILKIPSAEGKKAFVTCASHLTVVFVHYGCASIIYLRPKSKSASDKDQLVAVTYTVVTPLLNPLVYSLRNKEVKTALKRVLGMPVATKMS
Procedure, shortened: as §1

[4] = target: T4, OR10X1 (Homo sapiens) (UniProt Q8NGY0)
T4 sequence (whole entry): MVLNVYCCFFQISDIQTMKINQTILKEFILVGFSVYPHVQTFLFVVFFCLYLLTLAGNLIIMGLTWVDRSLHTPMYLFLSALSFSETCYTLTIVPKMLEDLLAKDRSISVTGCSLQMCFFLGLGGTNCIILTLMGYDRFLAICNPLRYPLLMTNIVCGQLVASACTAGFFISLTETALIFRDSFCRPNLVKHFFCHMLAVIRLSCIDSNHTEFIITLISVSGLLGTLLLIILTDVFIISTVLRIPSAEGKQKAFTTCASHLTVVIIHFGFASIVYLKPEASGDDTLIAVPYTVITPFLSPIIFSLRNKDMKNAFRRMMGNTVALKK
Procedure, shortened: as §1

[5] = target: T5, OR10Z1 (Homo sapiens) (UniProt Q8NGY1)
T5 sequence (whole entry): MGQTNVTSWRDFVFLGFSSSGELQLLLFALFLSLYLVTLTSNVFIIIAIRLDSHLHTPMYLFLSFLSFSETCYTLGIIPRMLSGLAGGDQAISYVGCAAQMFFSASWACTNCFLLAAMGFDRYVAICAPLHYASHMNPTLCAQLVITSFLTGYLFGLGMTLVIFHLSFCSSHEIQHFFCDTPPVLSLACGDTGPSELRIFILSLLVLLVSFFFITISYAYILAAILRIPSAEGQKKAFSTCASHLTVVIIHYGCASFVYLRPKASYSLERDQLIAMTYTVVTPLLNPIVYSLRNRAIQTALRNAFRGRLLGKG
Procedure, shortened: as §1

[6] = target: T6, OR11A1 (Homo sapiens) (UniProt Q9GZK7)
T6 sequence (whole entry): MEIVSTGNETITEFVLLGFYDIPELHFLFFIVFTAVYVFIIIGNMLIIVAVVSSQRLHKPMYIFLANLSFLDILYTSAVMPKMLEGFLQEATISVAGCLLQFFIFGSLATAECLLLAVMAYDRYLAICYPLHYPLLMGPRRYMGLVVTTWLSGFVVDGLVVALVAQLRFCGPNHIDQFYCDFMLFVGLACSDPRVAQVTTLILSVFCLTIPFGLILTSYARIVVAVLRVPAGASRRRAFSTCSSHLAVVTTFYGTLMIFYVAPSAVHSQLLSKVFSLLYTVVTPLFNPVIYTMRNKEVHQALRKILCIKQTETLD
Procedure, shortened: as §1

[7] = target: T7, OR11H4 (Homo sapiens) (UniProt Q8NGC9)
T7 sequence (whole entry): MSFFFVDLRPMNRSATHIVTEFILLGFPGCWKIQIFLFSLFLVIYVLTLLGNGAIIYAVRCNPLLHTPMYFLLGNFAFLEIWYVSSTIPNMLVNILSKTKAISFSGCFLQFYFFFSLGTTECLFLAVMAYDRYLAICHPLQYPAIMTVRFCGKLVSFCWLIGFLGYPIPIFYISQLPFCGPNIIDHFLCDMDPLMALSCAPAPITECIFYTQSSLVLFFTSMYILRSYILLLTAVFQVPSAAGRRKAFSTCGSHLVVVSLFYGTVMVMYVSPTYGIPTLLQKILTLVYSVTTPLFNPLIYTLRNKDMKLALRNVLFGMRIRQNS
Procedure, shortened: as §1

[8] = target: T8, OR11H6 (Homo sapiens) (UniProt Q8NGC7)
T8 sequence (whole entry): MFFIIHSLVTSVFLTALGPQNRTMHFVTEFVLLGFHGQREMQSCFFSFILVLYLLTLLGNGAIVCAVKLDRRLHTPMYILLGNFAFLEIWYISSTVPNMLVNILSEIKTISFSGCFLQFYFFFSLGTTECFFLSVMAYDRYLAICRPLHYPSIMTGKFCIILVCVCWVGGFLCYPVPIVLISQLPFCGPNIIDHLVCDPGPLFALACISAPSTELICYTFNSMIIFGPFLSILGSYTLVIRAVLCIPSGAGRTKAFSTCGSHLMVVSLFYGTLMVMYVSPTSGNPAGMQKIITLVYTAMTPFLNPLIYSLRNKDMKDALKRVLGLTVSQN
Procedure, shortened: as §1

[9] = target: T9, OR12D2 (Homo sapiens) (UniProt P58182)
T9 sequence (whole entry): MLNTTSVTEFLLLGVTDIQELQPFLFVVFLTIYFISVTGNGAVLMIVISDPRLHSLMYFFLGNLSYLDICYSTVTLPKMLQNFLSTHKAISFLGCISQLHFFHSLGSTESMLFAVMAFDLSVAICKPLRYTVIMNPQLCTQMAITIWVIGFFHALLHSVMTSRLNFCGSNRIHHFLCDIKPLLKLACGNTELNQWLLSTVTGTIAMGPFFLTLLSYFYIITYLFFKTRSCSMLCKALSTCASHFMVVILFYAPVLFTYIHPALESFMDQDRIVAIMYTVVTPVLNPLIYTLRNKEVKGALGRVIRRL
Procedure, shortened: as §1

[10] = target: T10, OR12D3 (Homo sapiens) (UniProt Q9UGF7)
T10 sequence (whole entry): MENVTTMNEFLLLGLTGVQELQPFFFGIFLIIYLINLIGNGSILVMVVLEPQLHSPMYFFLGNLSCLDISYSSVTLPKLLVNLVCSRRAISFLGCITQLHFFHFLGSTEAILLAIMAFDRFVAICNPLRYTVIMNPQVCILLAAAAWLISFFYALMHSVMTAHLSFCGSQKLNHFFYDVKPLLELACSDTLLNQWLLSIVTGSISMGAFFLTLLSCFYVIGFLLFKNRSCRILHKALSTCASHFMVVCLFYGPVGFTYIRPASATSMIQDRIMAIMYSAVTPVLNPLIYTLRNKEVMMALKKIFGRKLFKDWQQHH
Procedure, shortened: as §1

[11] = target: T11, OR13A1 (Homo sapiens) (UniProt Q8NGR1)
T11 sequence (whole entry): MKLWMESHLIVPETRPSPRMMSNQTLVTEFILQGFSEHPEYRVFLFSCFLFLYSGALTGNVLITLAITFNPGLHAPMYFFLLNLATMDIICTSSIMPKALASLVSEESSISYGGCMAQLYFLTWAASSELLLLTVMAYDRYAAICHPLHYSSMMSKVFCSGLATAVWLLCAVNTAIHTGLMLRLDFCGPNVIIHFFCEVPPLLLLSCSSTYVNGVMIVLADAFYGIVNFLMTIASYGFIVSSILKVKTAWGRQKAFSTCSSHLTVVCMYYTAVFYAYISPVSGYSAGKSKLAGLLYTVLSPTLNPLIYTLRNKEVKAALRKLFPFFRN
Procedure, shortened: as §1

[12] = target: T12, OR10S1 (Homo sapiens) (UniProt Q8NGN2)
T12 sequence (whole entry): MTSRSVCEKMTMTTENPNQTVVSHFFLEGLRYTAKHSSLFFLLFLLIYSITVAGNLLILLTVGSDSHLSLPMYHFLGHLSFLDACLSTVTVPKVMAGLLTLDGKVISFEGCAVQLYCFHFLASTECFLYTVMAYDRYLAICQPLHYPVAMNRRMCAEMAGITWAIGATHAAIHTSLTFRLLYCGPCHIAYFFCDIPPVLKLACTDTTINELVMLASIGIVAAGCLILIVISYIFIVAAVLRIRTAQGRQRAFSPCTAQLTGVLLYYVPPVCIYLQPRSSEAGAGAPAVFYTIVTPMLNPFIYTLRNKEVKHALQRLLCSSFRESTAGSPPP
Procedure, shortened: as §1

Measured: odorant receptor agonist call

C=CCc1ccc(OC(C)=O)c(OC)c1
not listed: [12]
inactive: all other assays above

C=CCc1ccc(O)c(OC)c1
inactive: [12]

CCC1(O)C2(C)CCC(C2)C1(C)C (stereo not drawn)
active: [6]
not listed: [12]
inactive: all other assays above

CC(=O)OC(C)(C)C1CC=C(C)CC1 (stereo not drawn)
not listed: [12]
inactive: all other assays above

CC(=O)OC1CC2CCC1(C)C2(C)C (stereo not drawn)
not listed: [12]
inactive: all other assays above

CC(C)=CCCC(C)=CC=O
not listed: [12]
inactive: all other assays above

CC12CCC(C1)C(C)(C)C2=O (stereo not drawn)
not listed: [12]
inactive: all other assays above

c1cnccn1
not listed: [12]
inactive: all other assays above
